PubChem BioAssay AID1259308 – NCATS | 2017

Screen: 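Candidate targets for better recombinant protein yield in mammalian cells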 (primary screen)
System: human HEK293 embryonic kidney cells stably expressing firefly luciferase (HEK-CMV-Luc2-Hygro)
Reagents: single siRNA against human genes, 0.8 pmol siRNA per well
Timing: 72 h
Read-out: 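Reporter luminescence and viable-cell signal on separate replicate plates, given as percent of non-targeting control and median/MAD z-scores, plus per-cell luciferase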
Reading the numbers: total luciferase, z-score and total luciferase, % of control: higher = more reporter protein produced; luciferase per cell, z-score: higher = more reporter output per viable cell; viable cells, % of control: higher = more viable cells
Hit rule: 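Active when the median/MAD z-score for overall luciferase is greater than 3; a gene was taken forward for validation with new siRNAs if at least two of its three siRNAs passed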
Calls: active = raised luciferase; inactive = no rise
This is an unselected part of about 59,000 deposited reagents. Over the whole deposit, about 1,510 (2.6%) were called active. 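Calls use total luciferase alone and ignore viability, so some active siRNAs may act by altering cell number.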 Reagents against one gene are numbered here.

gene | siRNA no. | total luciferase, z-score | total luciferase, % of control | luciferase per cell, z-score | viable cells, % of control | activity call
HRC | 1 | -1.25 | 57 | -1.44 | 93.2 | inactive
HRC | 2 | -1.16 | 58.8 | -1.01 | 85.7 | inactive
HRC | 3 | -0.425 | 73.4 | -0.0791 | 83.8 | inactive
CASP10 | 1 | -0.576 | 70.4 | -0.0358 | 79.4 | inactive
CASP10 | 2 | -0.462 | 72.7 | 0.119 | 78.7 | inactive
CASP10 | 3 | -0.349 | 74.9 | 0.133 | 80.9 | inactive
ATAD3B | 1 | 0.387 | 89.6 | 0.0169 | 99.7 | inactive
ATAD3B | 2 | -0.9 | 64 | -1.06 | 94.6 | inactive
ATAD3B | 3 | -0.166 | 78.6 | -0.679 | 105 | inactive
VWCE | 1 | -0.265 | 76.6 | -0.906 | 109 | inactive
VWCE | 2 | 0.271 | 87.3 | -0.175 | 102 | inactive
VWCE | 3 | -2.6 | 30.3 | -1.63 | 51.9 | inactive
DNAJC8 | 1 | -0.32 | 75.5 | 0.829 | 67.8 | inactive
DNAJC8 | 2 | 1.28 | 107 | 0.941 | 93.6 | inactive
DNAJC8 | 3 | 1.47 | 111 | 2.19 | 69.8 | inactive
IDNK | 1 | -0.241 | 77.1 | -0.481 | 97.8 | inactive
IDNK | 2 | 0.833 | 98.5 | 0.726 | 90.9 | inactive
IDNK | 3 | 0.449 | 90.8 | 0.929 | 79.5 | inactive
PRG3 | 1 | -0.891 | 64.2 | -1.14 | 96.8 | inactive
PRG3 | 2 | 1.01 | 102 | 1.63 | 74.2 | inactive
PRG3 | 3 | 0.12 | 84.3 | -0.276 | 101 | inactive
SFRP5 | 1 | -0.353 | 74.9 | 0.744 | 68.8 | inactive
SFRP5 | 2 | -1.04 | 61.1 | -0.852 | 85.5 | inactive
SFRP5 | 3 | 0.581 | 93.4 | 1.44 | 71.4 | inactive

Records listed so far whose gene name begins with I or i:
gene | siRNA no. | total luciferase, z-score | total luciferase, % of control | luciferase per cell, z-score | viable cells, % of control | activity call
IDNK | 1 | -0.241 | 77.1 | -0.481 | 97.8 | inactive
IDNK | 2 | 0.833 | 98.5 | 0.726 | 90.9 | inactive
IDNK | 3 | 0.449 | 90.8 | 0.929 | 79.5 | inactive
